The source of these data is PMC12270237.

The target of the experiment is T1, MICU3-FLAG (UniProt Q86XE3).
T1 sequence: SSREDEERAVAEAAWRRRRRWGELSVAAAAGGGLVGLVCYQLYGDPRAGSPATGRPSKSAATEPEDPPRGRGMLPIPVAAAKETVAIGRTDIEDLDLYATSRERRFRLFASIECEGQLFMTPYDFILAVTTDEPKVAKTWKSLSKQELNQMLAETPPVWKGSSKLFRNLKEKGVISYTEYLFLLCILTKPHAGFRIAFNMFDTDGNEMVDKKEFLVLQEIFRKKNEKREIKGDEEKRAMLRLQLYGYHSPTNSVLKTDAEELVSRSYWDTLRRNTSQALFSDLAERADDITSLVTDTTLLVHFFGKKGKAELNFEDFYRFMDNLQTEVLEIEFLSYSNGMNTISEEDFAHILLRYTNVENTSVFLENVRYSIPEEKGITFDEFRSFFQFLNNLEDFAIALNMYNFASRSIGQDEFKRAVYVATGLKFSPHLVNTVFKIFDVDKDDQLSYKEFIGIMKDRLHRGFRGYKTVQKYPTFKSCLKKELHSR
The experiment can be described thus: co-IP; transfected HEK 293T cells (Micu1-/-, Mcu-/- or WT; some treated with ionomycin or BAPTA-AM 12 h before collection); cells treated with 0.2 mM DSP, lysed in Pierce IP lysis buffer; anti-HA, -Myc or -FLAG beads overnight at 4°C; western blot.

These are yes or no findings as the source states them, for the method shown. In cells and extracts the contact can be indirect. A result given as binding can be weak or reduced; the word gives no strength. Tags and fused reporters may be left off the sequences shown.

Consider MICU1-HA, for which the binding result is “binds”.
